Reference: PubChem BioAssay AID504467 (National Center for Advancing Translational Sciences (NCATS), 2011)
Among all 330,000 compounds or so, about 7,700 (2.3%) were called active. This list was built around the results that the source calls inconclusive (neither active nor inactive); the mix of calls is not that of the screen. Calls come from the whole dose curve; as a rule, active = well fitted inhibition curve with a large enough effect; inconclusive = small, poorly fitted or top-dose-only effect, or effect the other way; inactive = flat fitted curve, though single readings scatter. Where the call is inconclusive, the potency comes from a doubtful curve fit.

Assay: qHTS screen for small molecules that inhibit ELG1-dependent DNA repair in human embryonic kidney (HEK293T) cells expressing luciferase-tagged ELG1; note: nearly all actives have a fitted effect of over 55% in size
Details: HEK293T ELG1-luciferase reporter, luminescence, 16 h, DNA damage induced by 5-fluorouridine; series mostly up to 46.1 µM
Procedure, shortened: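 HEK293T cells expressing luciferase-tagged ELG1 (2,000/well) received 5-Fluorouridine plus compound or DMSO for 16 hr at 37 °C. Luciferase was read by ONE-Glo luminescence after 30 min at room temperature.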
Potency is the fitted concentration of half-maximal effect.

SMILES | Potency
CCN(CC)C(=O)c1ccc(NC(=O)CNC(C)c2cccc3ccccc23)cc1 (stereo not given) | inconclusive: 23.1 µM [inhibitor, partial curve, poor fit]
O=c1cc(-c2ccc(O)c(O)c2)oc2cc(O)cc(O)c12 | inconclusive: 9.2 µM [activator, partial curve]
Cc1ccc(-n2c(/C=C/c3ccccn3)nc3ccccc3c2=O)cc1 | inconclusive: 5.17 µM [inhibitor, single point]
CCOC(=O)Cn1cc(C(=O)c2ccccc2)c2ccccc21 | inactive
Cn1cc(NC(=O)CCl)cn1 | inactive
Clc1ccc2c(c1)C(c1ccccc1Cl)=NCc1nnc(N3CCN(CCOc4ccccc4)CC3)n1-2 | inconclusive: 29.1 µM [inhibitor, single point]
COc1c(C)cc(C(=O)C2CCCN(Cc3cnc(C)s3)C2)cc1C (stereo not given) | inconclusive: 29.1 µM [inhibitor, single point]
CC(C)NC(=O)C(C)N1CCN(S(=O)(=O)c2ccc3ccccc3c2)CC1 (stereo not given) | inconclusive: 23.1 µM [inhibitor, single point]
c1ccc2c(CCNC3CCCCC3)c[nH]c2c1 | inactive
c1ccc(OCCSc2nc3ccccc3[nH]2)cc1 | inconclusive: 14.6 µM [activator, partial curve]
CCc1cccc(NC(=O)Cn2c(=O)oc3cc(S(=O)(=O)N4CCOCC4)ccc32)c1 | inconclusive: 13 µM [inhibitor, partial curve, poor fit]
Cc1cc(C)nc(/N=C(\N)c2c(O)[nH]c(=O)[nH]c2=O)n1 | inactive
Nc1ccccc1C(=O)OCCc1ccccc1 | inconclusive: 2.06 µM [activator, partial curve]
O=C(c1ccccc1F)c1cn(CC(=O)N2CCCC2)c2ccccc12 | inactive
COc1ccc(/C=C/C(=O)NC(=S)N2C[C@H]3C[C@H](C2)c2cccc(=O)n2C3)cc1OC | inactive
COc1ccccc1NC(=O)N1C[C@@H]2C[C@@H](C1)c1cccc(=O)n1C2 | inactive
CCOP1(=S)Oc2cc3c(cc2C(C(=O)OC)(C(F)(F)F)O1)OCO3 (stereo not given) | inactive
Cn1cc(C(=O)NC2CC2)c2ccccc21 | inactive
CC(C)(O)/C=C/C(=O)[C@](C)(O)C1[C@H](O)C[C@@]2(C)C3CC=C4C(C=C(O[C@@H]5O[C@H](CO)[C@@H](O)[C@H](O)[C@H]5O)C(=O)C4(C)C)[C@]3(C)C(=O)C[C@]12C (stereo not given in full) | inconclusive: 18.3 µM [activator, partial curve, poor fit]
COc1ccccc1OCCCn1cc(C(=O)C2CC2)c2ccccc21 | inconclusive: 20.6 µM [inhibitor, single point]
c1ccc(CN2CCc3nc4ccccc4cc3C2)cc1 | inconclusive: 11.6 µM [activator, partial curve]
COc1ccc(/C=C2\C(=O)NC(=O)N(CCC3=CCCCC3)C2=O)c(OC)c1 | inconclusive: 23.1 µM [activator, single point]
CC(=NCCCn1ccnc1)c1c(O)n(C2CCCCC2)c(=O)[nH]c1=O | inconclusive: 29.1 µM [inhibitor, single point]
COc1cc2c(cc1OC)-c1c(OC)c(OC)cc3c1C(C2)N(C)CC3 (stereo not given) | inconclusive: 8.2 µM [inhibitor, partial curve]

SMILES | Potency
CCOC(=O)c1c(N)n(Cc2ccc(OC)cc2)c2nc3ccccc3nc12 | inconclusive: 20.6 µM [inhibitor, single point]
C=CCn1c(O)c(C(CC)=NCCCO)c(=O)[nH]c1=O | inconclusive: 20.6 µM [activator, partial curve, poor fit]
C[C@]12CC[C@H](O)CC1=CCC1C2CC[C@@]2(C)C1C[C@@H](O)[C@@H]2O (stereo not given in full) | inactive
COc1nc(NCC2CCCO2)nc(N2CC3CC(C2)c2cccc(=O)n2C3)n1 (stereo not given) | inconclusive: 18.3 µM [activator, partial curve, poor fit]
COc1cccc(Oc2c(C)oc3cc(OC(=O)N(C)C)ccc3c2=O)c1 | inactive
Cc1nn(Cc2ccc(Cl)cc2Cl)c(Cl)c1C(=O)O | inactive
CCOP(=O)(OCC)c1nc(-c2cccc3ccccc23)oc1N1CCOCC1 | inconclusive: 16.4 µM [inhibitor, partial curve]
CCOc1c(P(=S)(N(C)C)N(C)C)c(C)nn1-c1ccccc1 | inactive
CC12CN3CN(C1)CC(c1ccccc1)(C3)C2=O | inactive
N#C/C=C/C#N | inconclusive: 6.51 µM [activator, partial curve, poor fit]
COc1ccc2[nH]c(C)c(CCNCc3cccnc3)c2c1 | inactive
O=C1NC(=O)N(Cc2ccccc2)C(=O)/C1=C\C=C\c1ccco1 | inconclusive: 18.3 µM [activator, single point]
COc1cccc(C(C(=O)NCc2ccco2)N(Cc2ccco2)C(=O)Cn2nnc3ccccc32)c1 (stereo not given) | inconclusive: 5.17 µM [inhibitor, single point]
Clc1ccc(C[n+]2c(-c3ccccc3)cc(-c3ccccc3)cc2-c2ccccc2)cc1 | inconclusive: 14.1 µM [inhibitor, single point]
CC1CCN(c2cc(Br)c([N+](=O)[O-])cc2F)CC1 | inactive
Clc1cccc(C2NCc3ccccc3-n3cccc32)c1 (stereo not given) | inconclusive: 25.9 µM [inhibitor, partial curve, poor fit]
CN(C)c1ccc(C(=O)c2ccc(N(C)C)cc2)cc1 | inconclusive: 29.1 µM [activator, single point]
OC(CCCN1CCC(O)(c2ccc(Cl)cc2)CC1)c1ccc(F)cc1 (stereo not given) | inconclusive: 5.8 µM [inhibitor, partial curve]
O=C1CN(O)C(c2ccccc2Cl)=c2cc(Br)ccc2=N1 | inactive
O=C(OCC(=O)c1cccs1)C1=COCCO1 | inconclusive: 13 µM [activator, partial curve]
CN(Cc1ccccc1)C(=O)c1ccc(NC(=O)C2CCN(C(=O)OC(C)(C)C)CC2)cc1 | active: 10.3 µM
CCOC(=O)C1CCCN(C(=O)c2ccc3oc(Cc4ccccc4)nc3c2)C1 (stereo not given) | inconclusive: 16.4 µM [activator, partial curve]
CC(C)OP(=O)(OC(C)C)C(Nc1ccccc1)c1cccc2c1OCO2 (stereo not given) | inconclusive: 16.4 µM [inhibitor, partial curve, poor fit]
CCOP(=O)(OCC)C(NS(=O)(=O)c1ccccc1)C(Cl)(Cl)Cl (stereo not given) | inconclusive: 23.1 µM [inhibitor, single point]

SMILES | Potency
COCCCn1c(-c2ccc(OC)cc2)cc(C(=O)NC2CCCCCCC2)c1C | active: 23.1 µM
C/C(=N\N1CCCCCC1)c1c(O)n(C2CCCCC2)c(=O)[nH]c1=O | inactive
O=C(CN1CCCCC1)c1ccc2c(c1)OCO2 | inconclusive: 10.3 µM [activator, partial curve, poor fit]
C=CCn1c(O)c(C(CC)=NCCN2CCN(C(=S)NC)CC2)c(=O)[nH]c1=O | inconclusive: 29.1 µM [activator, single point]
O=C(CCC(=O)N1C[C@H]2C[C@@H](C1)c1cccc(=O)n1C2)NCc1cccc(C(F)(F)F)c1 | inactive
CCN1C(=O)C(=Cc2ccc(C)s2)C(=O)N(CC)C1=S | inconclusive: 16.4 µM [activator, partial curve]
COc1ccc(-c2nn(CCC#N)cc2C(=O)Nc2ccc(C(C)=O)cc2)cc1[N+](=O)[O-] | inconclusive: 5.62 µM [activator, single point]
CCCCn1c(O)c(C(C)=Nc2ccc(OCC)cc2)c(=O)[nH]c1=O | inconclusive: 20.6 µM [inhibitor, partial curve, poor fit]
CCOC(=O)c1c(C)n(Cc2ccccc2)c2ccc(O)cc12 | inactive
COC(=O)C1=C(c2ccc(OC(F)(F)F)cc2)C[C@@H]2CC[C@H]1N2C(=O)NC1CC1 | inactive
O=C(Nc1cccc(OC(=O)N2CCCCC2)c1)N1CCOCC1 | inconclusive: 20.6 µM [inhibitor, partial curve, poor fit]
CCCCc1cc(=O)oc2cc(OCC(=O)N3C[C@H]4C[C@@H](C3)c3cccc(=O)n3C4)c(Cl)cc12 | inactive
COCCOC(=O)c1c(N)n(Cc2ccco2)c2nc3ccccc3nc12 | inactive
O=C(Cc1ccc([N+](=O)[O-])cc1)N1CCN(Cc2ccc3c(c2)OCO3)CC1 | inconclusive: 29.1 µM [inhibitor, partial curve, poor fit]
O=C(NCc1cccnc1)Nc1ccccc1Cl | inactive
Cc1ccc(C(=O)c2cc(Br)ccc2N)cc1 | inconclusive: 23.1 µM [activator, single point]
CN1CCCC(C(=O)c2ccccc2)C1 (stereo not given) | inactive
N#CC(C#N)=NNc1ccc(-n2ccc(C(F)(F)F)n2)cc1 | inconclusive: 2.91 µM [inhibitor, full curve, poor fit]
COc1ccc(CN2CCN(C(=O)COc3cccc(C)c3)CC2)c(OC)c1 | inactive
O=C(COc1ccccc1)c1cn(Cc2ccccc2)c2ccccc12 | inconclusive: 32.6 µM [inhibitor, single point]
COC(=O)[C@@H](Cc1ccccc1)N(Cc1ccccc1)S(=O)(=O)N(Cc1ccccc1)[C@H](Cc1ccccc1)C(=O)OC | inconclusive: 3.66 µM [inhibitor, single point]
COc1cc2c(cc1O)C[C@H]1c3c(cc(O)c(OC)c3-2)CCN1C | inconclusive: 35.5 µM [inhibitor, single point]

Rewritten in markdown: 3 of the compounds above

| SMILES | Potency |
| --- | --- |
| CC1CCN(c2cc(Br)c([N+](=O)[O-])cc2F)CC1 | inactive |
| Clc1cccc(C2NCc3ccccc3-n3cccc32)c1 (stereo not given) | inconclusive: 25.9 µM [inhibitor, partial curve, poor fit] |
| CN(C)c1ccc(C(=O)c2ccc(N(C)C)cc2)cc1 | inconclusive: 29.1 µM [activator, single point] |
